The test concerns the target T1, plasmin originating from swine blood (Sus scrofa, UniProt P06867).
T1 construct: from tissue; host or cells: swine blood
The test can be described thus: Stabilizing effect of amino acids on plasmin solution, residual plasmin activity (casein) on storage. The test is classed as biochemical. The note with it: 35.5°C, employed concentration 0.25 millimole per plasmin unit. As for the experimental part:
Usually the activity of plasmin solutions is expressed in the number of plasmin units per milliliter. However, no definition of a plasmin unit has until now been internationally adopted. Here and in the following one plasmin unit means the amount of plasmin causing in 20 minutes the formation of decomposition products being soluble in perchloric acid and having an extinction of 1 unit at 275 mμ under the following experimental conditions:
1 […] THE PLASMIN SOLUTION THE ACTIVITY OF WHICH IS TO BE […] THE PH of which is 7.5 is added to two test tubes each containing in 0.4 molar phosphate buffer (pH 7.50) 1 […] a 3 per cent's solution of Hammarsten Casein said solution having been preheated to 35.5°C. […] By the addition of the perchloric acid a precipitation takes place, and the two test tubes now stand for 20 minutes whereafter filtration two times through filtering paper (J. H. Munktells unrivalled Genuine Swedish Filtering Paper No. 0.9 cm) is carried out. The extinction of the two solutions is thereafter measured at 275 mμ in a Beckman D U Spectrophotometer (1 cm quartz cuvette), the value of the sample having stood for 2 minutes being used as blind value.
The stabilizing effect of a long series of amino acids has been examined in connection with plasmin originating from swine blood and dissolved in phosphate buffer (pH 7.5). […] If not, a saturated amino acid solution is employed.

The chains behind the UniProt entries cited, without tags or fusion partners. Residues count along the entry.
UniProt P06867, 97-579 limits assumed: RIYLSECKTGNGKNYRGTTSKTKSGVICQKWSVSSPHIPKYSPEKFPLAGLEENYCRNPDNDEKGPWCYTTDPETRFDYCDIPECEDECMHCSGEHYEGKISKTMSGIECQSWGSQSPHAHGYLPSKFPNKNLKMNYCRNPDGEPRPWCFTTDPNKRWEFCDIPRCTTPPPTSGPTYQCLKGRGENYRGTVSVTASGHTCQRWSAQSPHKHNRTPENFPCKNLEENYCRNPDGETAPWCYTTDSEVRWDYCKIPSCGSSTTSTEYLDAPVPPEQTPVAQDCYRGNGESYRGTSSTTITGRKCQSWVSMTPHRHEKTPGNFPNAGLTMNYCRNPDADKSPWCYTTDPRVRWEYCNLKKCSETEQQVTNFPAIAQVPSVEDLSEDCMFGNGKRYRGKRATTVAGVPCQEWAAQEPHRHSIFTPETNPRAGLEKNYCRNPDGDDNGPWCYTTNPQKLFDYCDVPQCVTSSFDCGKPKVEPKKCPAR
UniProt P06867, 580-809 limits assumed: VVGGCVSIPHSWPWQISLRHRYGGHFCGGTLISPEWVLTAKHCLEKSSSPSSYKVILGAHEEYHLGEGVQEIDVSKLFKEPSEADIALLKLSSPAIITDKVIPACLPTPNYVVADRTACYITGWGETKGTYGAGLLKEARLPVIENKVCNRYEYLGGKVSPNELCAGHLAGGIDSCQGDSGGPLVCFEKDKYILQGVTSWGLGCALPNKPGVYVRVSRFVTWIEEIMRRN

Consider `NCCC[C@H](N)C(=O)O` [L-ornithine], for which the “stabilizing effect (in words)” value was “excellent stabilizing effect”.

These data come from patent US3950513A, “Process of stabilizing therapeutically useful plasmin solutions” (Novo Terapeutisk Laboratorium A/S, priority 1969, dated 1976).
